For 30 compounds, cell number change and AC50 results are on record in PubChem BioAssay AID2685 (National Center for Advancing Translational Sciences (NCATS), 2010).

The other results are listed elsewhere or left out. These are further read-outs of the screen, such as a control signal, another cell line or another target. No call is given for them. Most of these compounds were active or inconclusive in the main read-out, so they are no random draw. Words in brackets tell the shape of the fitted curve; partial curves, single points and poor fits give uncertain potencies.

This assay in a line: qHTS Assay for Lipid Storage Modulators in Drosophila S3 Cells.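 For cell number change: cells counted by Cell Tracker Red CMTPX staining in the red channel.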 Particulars: BODIPY lipid droplet fluorescence, 18-24 h; for cell number change: measured here: cell count max response, cells fed with added oleic acid. In a few lines:
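Laser-scanning cytometry quantifies lipid droplet accumulation (500–530 nm total intensity; droplet/cell object ratio) in oleic acid-fed (400 uM added) Drosophila S3 cells treated with a concentration series. 20 uM Triacsin C defined 100% inhibition.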

The mark [1] stands for this setting: measured here: lipid fluorescence (Fed channel) AC50, cells fed with added oleic acid.
[2] abbreviates: measured here: cell number channel AC50, cells fed with added oleic acid.

For the compound `O=C(N1CCOCC1)C12CC3CC(C1)CC(n1cnc(Cl)n1)(C3)C2`, the cell number change is -4.94%. The AC50 under setting [1] was 16.4 µM [falling, partial curve, poor fit].

Regarding `COc1ccc(-c2nc(-n3c(C)c(C(C)=O)c(C(C)=O)c3C)sc2C)cc1OC`, the AC50 runs as follows: under setting [2], 0.651 µM [rising, full curve]; under setting [1], 16.4 µM [rising, partial curve].

In the case of `CC(NC(=O)CC1CCCCC1)c1ccccc1` (stereo unspecified), the cell number change is -3.97%. For the same compound, the AC50 under setting [1] is 0.13 µM [rising, partial curve, poor fit].

In the case of `CC(=O)N/N=c1\sc2ccccc2n1C`, the cell number change is -38.4%.

For `COc1cc2c(cc1NC(=O)C(C)OC(=O)/C=C/c1ccc(OC(F)F)cc1)oc1ccccc12` (stereo unspecified), the cell number change was -4.55%. In addition, under setting [1], the AC50 is 2.06 µM [rising, partial curve].

As for `CCCN1CCN(CCCNC(=O)c2ccc(NC(=O)C3=C(C)OCCS3)cc2)CC1`, the cell number change is -27.7%. For the same compound, the AC50 under setting [1] is 0.58 µM [rising, single point].

As to `O=C(CCNc1ccc(F)cc1)c1cccc([N+](=O)[O-])c1`, the cell number change was -9.39%. For the same compound, under setting [1], the AC50 is 14.6 µM [falling, partial curve].

Consider `O=C1CCCN1c1ccc(Br)cc1`, for which the cell number change was 7.23%.

Take `CCOC(=O)CNS(=O)(=O)c1c(C)noc1C`: the cell number change is -50.9%. For the same compound, under setting [2], the AC50 was 5.8 µM [falling, full curve]. For the same compound, the AC50 under setting [1] is 14.6 µM [falling, partial curve].

Regarding `CC(=O)Nc1cccc(-c2nnc(SCC(=O)n3c4c(c5ccccc53)CCCC4)n2C)c1`, the cell number change was determined as 26.4%. In addition, the AC50 under setting [1] was 0.103 µM [rising, full curve, poor fit].

Turning to `COC(=O)C1=C(C)NC(=O)NC1c1ccc2ccccc2c1` (stereo unspecified), the cell number change came out at 13.7%. Under setting [1], the AC50 is 6.51 µM [rising, single point].

In the case of `O=C1CC(c2ccccc2)n2nc(NC(=O)c3cccs3)nc2N1` (stereo unspecified), the cell number change amounted to 4.99%.

As for `O=[N+]([O-])c1ccc(CNc2ccc(F)cc2)s1`, the cell number change was -4.4%. Further, under setting [1], the AC50 is 13 µM [falling, partial curve, poor fit].

Regarding `CC(=O)c1ccc(N2CCN(C(=O)Nc3ccc(C)cc3)CC2)cc1`, the cell number change stood at 10.4%. In addition, the AC50 under setting [2] was 0.326 µM [rising, full curve]. The half-maximal activity concentration (AC50) under setting [1] was 0.517 µM [rising, full curve].

As to `Cc1cnnc2c1-c1nonc1CC2`, the cell number change was -94.3%. In addition, the AC50 under setting [2] is 0.411 µM [falling, single point]. In addition, the AC50 under setting [1] was 29.1 µM [falling, single point].

As for `Cc1sc2ncnc(SCC(=O)N3CCN(C(=O)c4ccco4)CC3)c2c1C`, the cell number change is -18.2%.

As to `c1ccc2[nH]c(SCc3cscn3)nc2c1`, the cell number change stood at 121%. Also, the AC50 under setting [2] was 20.6 µM [rising, partial curve]. Besides, under setting [1], the half-maximal activity concentration (AC50) was 23.1 µM [rising, partial curve].

`COc1cc(C(=O)Nc2ccc3nc4n(c(=O)c3c2)CCCCC4)cc(OC)c1OC`: the AC50 under setting [1] is 3.26 µM [falling, single point].

Consider `CS(=O)(=O)c1ccc(Cl)c(NC(=O)COC(=O)C23CC4CC(CC(C4)C2)C3)c1`, for which the cell number change is -10.4%. For the same compound, the AC50 under setting [1] was 0.092 µM [rising, full curve, poor fit].

As to `Cc1cc(NC(=O)COC(=O)CNS(=O)(=O)c2ccc(C)c(C)c2)no1`, the cell number change is -110%. Moreover, under setting [2], the AC50 was 29.1 µM [falling, single point]. Also, the AC50 under setting [1] was 29.1 µM [falling, single point].

For `COc1ccc(OC)c(CNC(=O)C2CCCN(C(=O)N(C)C)C2)c1` (stereo unspecified), the cell number change worked out at 11.1%. Further, the AC50 under setting [1] is 1.16 µM [falling, single point].

In the case of `Nc1nc2cc(S(=O)(=O)NC3=NCCCCC3)ccc2s1`, the cell number change was -11.6%. Besides, under setting [1], the AC50 was 2.91 µM [rising, single point].

In the case of `CCOC(=O)c1ccoc1CSCc1ccc(C(=O)OC)o1`, the cell number change was -8.5%. Besides, the AC50 under setting [2] was 0.00517 µM [falling, full curve, poor fit].

On to `COc1ccc(OC)c(NC(=O)CSc2nnnn2C2CCCC2)c1`, for which the cell number change is -0.403%. Moreover, the AC50 under setting [1] is 20.6 µM [falling, single point].

Take `Cc1cc(OCC(=O)OC(C)C(=O)Nc2ccc(N3CCOCC3)cc2)ccc1Cl` (stereo unspecified): the cell number change amounted to 9.36%. Further, the AC50 under setting [1] was 1.16 µM [rising, full curve].

Take `O=C(NC(=S)NCC1CCCO1)c1ccco1` (stereo unspecified): the AC50 was 2.06 µM [rising, single point] under setting [2] and 0.058 µM [rising, full curve, poor fit] under setting [1].

Consider `Cc1ccc(S(=O)(=O)N2[C@@H](c3ccccc3)C(C(=O)O)=CC[C@H]2c2cccs2)cc1`, for which the cell number change was -4.15%. Under setting [1], the concentration at half-maximal activity (AC50) is 29.1 µM [rising, single point].

For `COc1ccccc1-n1cnc2cc(NCc3ccco3)ccc21`, the cell number change is -31.3%. Moreover, the AC50 under setting [2] was 20.6 µM [falling, single point].

`Cc1nn(C)c(C(=O)N/N=C/c2ccccc2)c1[N+](=O)[O-]`: the cell number change is -41%. Also, the AC50 under setting [2] is 4.61 µM [falling, single point]. Also, the AC50 under setting [1] is 0.731 µM [falling, full curve].

`CCC(=O)N1CCCC(C(=O)c2ccc(-c3ccccc3)cc2)C1` (stereo unspecified): the cell number change was -11.5%. Further, the AC50 under setting [1] was 6.51 µM [rising, single point].
